Results: patent US20240358829A1, “Lymphocyte Population and Methods for Producing Same” (AVM Biotechnology, LLC, priority 2021, published 2024)

What was measured:
[1] = test system: CD56+γδTCR+ NKT-like cells; details: human cancer subjects
Protocol: For characterisation of the induced/mobilized population of NKT-like cells (AVM-NKT) in humans, whole blood from human subjects was drawn in K2 EDTA Vacutainer tube (367862, BD Biosciences, NJ) and shipped to AVM Biotechnology at room temperature. 100 μl of whole blood was stained with the following antibodies: CD45 AF700 (2D1), CD16 APC (3G8), INKT PECy7 (6B11), CD8 PE (SK1), CD14 FITC (M5E2), CD56 BV650 (5.1H11), γδTCR BV510 (B1), CD19 BV421 (HIB19), NKp44 APC (P44-8) (all from Biolegend, San Diego, CA) and CD3 APCVio770 (BW264/56), (Miltenyi Biotec, San Jose, CA), 7-AAD, (Biolegend, San Diego CA) was included to distinguish the live and dead cells. […] Healthy patient blood from BloodWorks (Seattle, WA), unstained and fluorescence minus one (FMO) were included as controls. 250 μl sample was analyzed on MACSQuant 16 (Serial #40150, Miltenyi Biotec, San Jose, CA) flow cytometer. Data was analyzed using Kaluza 2.1 (Beckman Coulter Lifesciences, Indianapolis, IN) software for different immune population. Data obtained from flow cytometry analyzed by Kaluza were combined to determine different cell populations gated from Live CD45 Lymphocytes: CD3+ T cell, CD8+ cytotoxic T cell, CD3+CD56+ (NKT cells) CD3-CD56+, CD3-CD56bright (NK cells) and CD3-CD19+ (B cells), CD3+γδTCR+ cells, CD3+γδTCR bright cells, CD3+iTCR+ cells, Live WBC CD3-CD16bright granulocytes, Live WBC CD3-CD14+ monocytes. […]

A20 B cell lymphoma = details: study A20_1, repeat 18 mg/kg HED; mice 1-10 and 1-5
Protocol: FIG. 10B. […] Mice were inoculated with A20 lymphoma 2×10^6 cells in 100 μL of PBS mixed with 100 μL of chilled Matrigel into their flank. Three, 24 and 48 hours later mice were euthanized and tumors, blood, bone marrow and thymus were taken and made into single cell suspensions for flow cytometry detection of live A20 cells.

SMILES: C[C@@H]1C[C@H]2[C@@H]3CCC4=CC(=O)C=C[C@]4(C)[C@@]3(F)[C@@H](O)C[C@]2(C)[C@@]1(O)C(=O)COP(=O)(O)O [AVM0703, dexamethasone sodium phosphate]
- production and mobilization of a γδ Natural Killer T-like cell (CD56+γδTCR+) [1]: induces the production and mobilization
- tumor necrosis in individual mice (A20 B cell lymphoma): Mouse 1-5 totally necrotic was dosed as shown here
